Inconclusive means that the source gave no clear call. Such entries were picked first, then a sample of the others. For some of these results: Potencies beside an inconclusive call are fits to weak or partial responses and may not hold up. The source made the active and inactive calls. Calls follow the shape of the dose curve; as a rule, active = well fitted curve in the direction sought with a large enough effect; inconclusive = small, poorly fitted or top-dose-only effect, or another doubt; inactive = no such curve, though single readings can be large; an effect the other way counts as inactive or inconclusive.
How the values were obtained:
[1] = molecular target: Pyruvate kinase (Leishmania mexicana) (UniProt Q27686); test: qHTS Validation Assay for Inhibitors of Leishmania Mexicana Pyruvate Kinase (AID 945); also: potency is read from the fitted curve at half-maximal effect
Summary of the method: (§1)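 Purified LmPYK (E451W mutant, 0.2 nM) was incubated 1 h at room temperature with 0.5 mM PEP and 0.1 mM ADP in 50 mM imidazole pH 7.2, 50 mM KCl, 7 mM MgCl2; ATP formed was read by PKLight luminescence, normalized to DMSO wells.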

The chains behind the UniProt entries cited, without tags or fusion partners. Residues count along the entry.
UniProt Q27686, 2-499 E452W: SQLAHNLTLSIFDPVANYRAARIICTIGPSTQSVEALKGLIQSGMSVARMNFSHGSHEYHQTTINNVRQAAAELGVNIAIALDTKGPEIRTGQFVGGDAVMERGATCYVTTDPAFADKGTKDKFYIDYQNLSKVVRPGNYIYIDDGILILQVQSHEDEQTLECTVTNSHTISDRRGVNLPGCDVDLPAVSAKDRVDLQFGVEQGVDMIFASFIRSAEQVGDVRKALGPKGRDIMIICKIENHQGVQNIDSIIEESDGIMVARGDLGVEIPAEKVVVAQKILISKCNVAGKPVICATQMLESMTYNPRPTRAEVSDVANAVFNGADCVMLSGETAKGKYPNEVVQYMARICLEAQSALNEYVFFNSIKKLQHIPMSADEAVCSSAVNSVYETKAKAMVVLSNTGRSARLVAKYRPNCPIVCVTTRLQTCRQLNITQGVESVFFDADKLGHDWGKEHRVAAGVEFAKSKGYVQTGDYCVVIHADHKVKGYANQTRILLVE
UniProt P14618, whole entry, looked up: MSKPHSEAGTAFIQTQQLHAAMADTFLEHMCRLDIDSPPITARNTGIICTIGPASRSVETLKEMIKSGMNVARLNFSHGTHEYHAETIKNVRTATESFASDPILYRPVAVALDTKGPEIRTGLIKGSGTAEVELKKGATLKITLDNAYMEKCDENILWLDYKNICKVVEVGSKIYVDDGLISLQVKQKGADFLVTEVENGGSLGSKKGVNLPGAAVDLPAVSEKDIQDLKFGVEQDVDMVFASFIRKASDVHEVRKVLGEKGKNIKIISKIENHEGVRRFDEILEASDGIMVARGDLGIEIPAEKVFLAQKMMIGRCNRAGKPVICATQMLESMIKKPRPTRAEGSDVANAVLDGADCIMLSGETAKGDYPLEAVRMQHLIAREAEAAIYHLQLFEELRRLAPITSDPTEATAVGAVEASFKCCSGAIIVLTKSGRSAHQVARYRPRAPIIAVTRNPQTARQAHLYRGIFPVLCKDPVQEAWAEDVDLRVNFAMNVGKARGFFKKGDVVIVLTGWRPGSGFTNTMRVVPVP

[2] = molecular target: Pyruvate kinase PKM (Homo sapiens) (UniProt P14618); test: qHTS Assay for Inhibitors of Human Muscle Pyruvate Kinase (AID 958); settings: purified human PKM enzyme activity
Summary of the method: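 ATP production by PKM2 detected via luciferase luminescence after 1 h room-temperature reaction (0.1 nM enzyme, PEP at Km 0.5 mM, ADP 0.1 mM, pH 7.2 imidazole buffer). Inhibition scaled to no-enzyme control; activation referenced to 0.3 nM enzyme wells.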

[3] = MultiTox-Fluor Cytotoxicity Assay - LYMP1-001 - Live Cells (AID 947); also: potency is read from the fitted curve at half-maximal effect
[4] = MultiTox-Fluor Cytotoxicity Assay - LYMP1-003 - Dead Cells (AID 961); also: potency is read from the fitted curve at half-maximal effect; nearly all actives have a fitted effect of over 70% in size
Summary of the method: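 Dead-cell protease release, detected as bis-AAF-R110 fluorescence at 485/520 nm, was measured in LYMP1-003 cells after 16 h compound treatment at 37 C. AC50 values came from Hill-modeled qHTS curves normalized to DMSO (0%) and 15 uM tetraoctylammonium bromide (100%).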

[5] = MultiTox-Fluor Cytotoxicity Assay - LYMP1-001 - Dead Cells (AID 946); also: potency is read from the fitted curve at half-maximal effect
Summary of the method: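 Cytotoxicity as increased dead-cell protease fluorescence (bis-AAF-R110, 485/520 nm), read 60 min after MultiTox-Fluor reagent. Human lymphoblastoid line exposed 16 h; Hill-fitted AC50, with DMSO as 0% and 15 uM tetraoctylammonium bromide as 100%.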

[6] = molecular target: Pyruvate kinase (Leishmania mexicana) (UniProt Q27686); test: qHTS Validation Assay for Activators of Leishmania Mexicana Pyruvate Kinase (AID 959)
Summary of the method: as §1

[7] = MultiTox-Fluor Cytotoxicity Assay - LYMP1-002 - Live Cells (AID 955); settings: LYMP1-002 lymphoblastoid live-cell protease fluorescence viability;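 also: potency is read from the fitted curve at half-maximal effect; cells exposed to compound for 16 hours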
Summary of the method: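 Cytotoxicity in the human lymphoblastoid line LYMP1-002 is measured as loss of live-cell protease activity after 16 h treatment in complete culture medium. AC50 is derived from Hill-equation fits of qHTS concentration-response data.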

Q: With `O=Nc1c(-c2c(O)[nH]c3ccccc23)[nH]c2ccccc12` as the compound, how does the Potency [1] read?
A: The Potency was inconclusive: 20 µM [inhibitor, partial curve].

Q: And the Potency [2]?
A: The Potency was active: 12.6 µM.

Q: For `CN(C)C(N)=NCCC[C@H](N)C(=O)O`, which Potency [1] is on record?
A: The Potency was “inactive”.

Q: For `Nc1ccccc1N`, which Potency [3] is on record?
A: The Potency was inconclusive: 2.51 µM [cytotoxic, full curve, poor fit].

Q: What about the Potency [4] of the same compound?
A: The Potency was inconclusive: 31.6 µM [cytotoxic, full curve].

Q: Which Potency [5] does the source give for `S=c1[nH]c2ccccc2s1` here?
A: Its Potency is “inactive”.

Q: With `O=Nc1c(-c2c(O)[nH]c3cc(Br)ccc23)[nH]c2ccccc12` as the compound, how does the Potency [1] read?
A: Its Potency is inconclusive: 7.94 µM [inhibitor, partial curve].

Q: With `CC(C)C(=O)Nc1ccc([N+](=O)[O-])c(C(F)(F)F)c1` as the compound, how does the Potency [5] read?
A: The Potency was “inactive”.

Q: Which Potency [1] does the source give for `S=C(Nc1ccccc1)Nc1nccs1` here?
A: The Potency was inconclusive: 12.6 µM [inhibitor, partial curve].

Q: And the Potency [2]?
A: The Potency was inconclusive: 25.1 µM [inhibitor, partial curve].

Q: What about the Potency [6] of the same compound?
A: The Potency was “inactive”.

Q: For `O=C1c2c(O)ccc(O)c2C(=O)c2c(NCCNCCO)ccc(NCCNCCO)c21`, which Potency [1] is on record?
A: Its Potency is inconclusive: 15.8 µM [inhibitor, partial curve].

Q: And the Potency [2]?
A: Its Potency is inconclusive: 20 µM [inhibitor, partial curve].

Q: Which results are given for `N=C1N=C(N)c2cc3ccccc3cc21`?
A: Potency [3]: inconclusive: 50.1 µM [cytotoxic, partial curve, poor fit]; Potency [7]: active: 25.1 µM

Q: Which Potency [1] does the source give for `COc1cccc(-c2cc(=O)c3ccccc3o2)c1N` here?
A: The Potency was active: 12.6 µM.

Q: What about the Potency [2] of the same compound?
A: Its Potency is active: 15.8 µM.

Q: For `C#C[C@]1(O)CC[C@H]2[C@@H]3CCc4cc(O)ccc4[C@H]3CC[C@@]21C`, which Potency [5] is on record?
A: The Potency was inconclusive: 0.0063 µM [cytotoxic, full curve, poor fit].

Q: And the Potency [4]?
A: The Potency was inconclusive: 50.1 µM [cytotoxic, single point].

From PubChem BioAssay (NCATS)
